Some of these results come from one statement about several compounds together.
Key:
[1] = system: EL-4 tumours; assay: Treatment of large established EL-4 tumours with CAM gene transfer, DMXAA/FAA or timed combination; type: in vivo, C57BL/6 mice; conditions: large EL-4 tumours 0.6-0.8 cm; DMXAA or FAA monotherapy; animals sacrificed during sixth week
Experimental: Female C57BL/6 mice, 6-9 weeks old, were obtained from the Animal Resource Unit, School of Medicine and Health Science, University of Auckland, Auckland. The EL-4 thymic lymphoma and mouse Lewis lung carcinoma cells (LLC) (H-2b) were purchased from the American Type Culture Collection (Rockville, Md). These cell lines were cultured in vitro at 37° C. in DMEM medium (Gibco BRL), supplemented with 10% foetal calf serum, 50 U/ml penicillin/streptomycin, 2 mM L-glutamine, 1 mM pyruvate.
Experimental Tumour Model.
Administration FAA and DMXAA Analogues. FAA was gifted from the Department of Health & Human Services, Drug Synthesis & Chemistry laboratory, National Cancer Institute, Bethesda, USA. The sodium salt of DMXAA was synthesized in the Auckland Cancer Society Research Centre, School of Medicine and Health Science, University of Auckland. Solutions of FAA and DMXAA in 5% (w/v) sodium bicarbonate and water, respectively, were prepared fresh for each experiment and protected from light. FAA and DMXAA were injected i.p. at 300 mg/Kg and 25 mg/Kg of body weight in a volume of 0.01 ml/g body weight, respectively.
Gene Transfer of B7.1. […]

[2] = Baguley et al, 1993; Pedley et al, 1996; cited from earlier work

flavone acetic acid [FAA]
day by which tumours began to grow unchecked [1]: ≤ 28 days | range of doses active and acceptable in terms of toxicity [2]: 22.5-25 mg/Kg body weight

Source: US20040086498A9, “Cancer therapy” (priority 1999, published 2004)
